Paper PMC4752584, “The C repressor of the P2 bacteriophage” (Journal of Biomolecular Nmr, 2015)

Biological target: T1, P2 C repressor (15N-labeled wild type) (Enterobacteria phage P2) (UniProt P04132)
T1 sequence (looked up): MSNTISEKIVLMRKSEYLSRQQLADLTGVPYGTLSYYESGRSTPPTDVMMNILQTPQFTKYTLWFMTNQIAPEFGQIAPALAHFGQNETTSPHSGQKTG
Assay: NMR (15N-HSQC)
Conditions: 200 uM monomer, 50 uM dsDNA (4:1), mixed at 278 K for 60 min, only flexible C-terminal peaks visible in complex; 10 mM sodium phosphate pH 6.0, 10% D2O, 298 K (complex mixed at 278 K for 60 min); recombinant protein; residues 1-99

Sequence: CATGGTGTTTAGATCTCAATAGTATTTAGTTTAGATGTAGAT (double strand) [42 bp O1-O2 operator DNA]
- binding result: binds

For at least one entry, the source does not settle the construct or the ends of the probe. At least one verdict rests on a figure or table, not on a statement of the authors. Protein sequences can lack the tags named with them.
